Data: ChEMBL document CHEMBL2163335, “Structure-functional selectivity relationship studies of β-arrestin-biased dopamine D₂ receptor agonists” (J Med Chem, 2012)

Amino acid sequences for entries named in this document (tags omitted).
UniProt P14416, whole entry: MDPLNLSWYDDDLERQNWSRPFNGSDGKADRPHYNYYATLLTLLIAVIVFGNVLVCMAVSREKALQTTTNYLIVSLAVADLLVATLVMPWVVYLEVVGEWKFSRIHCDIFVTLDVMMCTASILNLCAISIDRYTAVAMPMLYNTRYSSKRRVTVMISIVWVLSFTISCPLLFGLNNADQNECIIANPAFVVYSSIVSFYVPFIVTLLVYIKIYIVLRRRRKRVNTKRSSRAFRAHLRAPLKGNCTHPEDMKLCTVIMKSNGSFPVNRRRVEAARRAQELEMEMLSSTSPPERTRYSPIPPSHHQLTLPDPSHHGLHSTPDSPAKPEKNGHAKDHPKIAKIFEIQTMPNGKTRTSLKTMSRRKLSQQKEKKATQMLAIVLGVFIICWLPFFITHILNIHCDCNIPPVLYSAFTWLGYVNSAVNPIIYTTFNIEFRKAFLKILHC

Target: D(2) dopamine receptor (Homo sapiens, UniProt P14416)
Assay: Agonist activity at human D2L receptor expressed in HEK293T cells coexpressing Gi subunit assessed as inhibition of isoproterenol-stimulated cAMP production by luminescence assay
Format: functional, cell-based
Settings: hek-293t; call rule not given here

O=c1ccc2ccc(OCCCCN3CCCN(c4cccc(Cl)c4Cl)CC3)cc2[nH]1
EC50: Not Active
